Among the data in paper doi:10.1101/2024.03.19.585814 are binding values, retold here.

Protein sequences, listed by entry. Tags and fused reporters are not part of them.
UniProt Q13418: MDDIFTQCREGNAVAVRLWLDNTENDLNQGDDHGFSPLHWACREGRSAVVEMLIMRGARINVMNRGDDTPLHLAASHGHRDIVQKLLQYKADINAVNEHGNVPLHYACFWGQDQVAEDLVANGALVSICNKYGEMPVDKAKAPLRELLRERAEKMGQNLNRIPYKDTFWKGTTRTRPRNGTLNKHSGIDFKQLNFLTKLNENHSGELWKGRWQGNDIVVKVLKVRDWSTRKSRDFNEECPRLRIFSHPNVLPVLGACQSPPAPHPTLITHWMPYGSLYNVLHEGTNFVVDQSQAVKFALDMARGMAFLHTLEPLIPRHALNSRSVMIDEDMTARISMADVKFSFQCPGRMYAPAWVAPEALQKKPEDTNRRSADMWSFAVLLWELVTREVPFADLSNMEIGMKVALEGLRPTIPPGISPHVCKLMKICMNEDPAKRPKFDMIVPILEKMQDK

This assay has as its target T1, CD99 (human (endogenous in SU-DIPG04, HSJD-DIPG007, SU-DIPGXIII)) (UniProt P14209).
T1 sequence: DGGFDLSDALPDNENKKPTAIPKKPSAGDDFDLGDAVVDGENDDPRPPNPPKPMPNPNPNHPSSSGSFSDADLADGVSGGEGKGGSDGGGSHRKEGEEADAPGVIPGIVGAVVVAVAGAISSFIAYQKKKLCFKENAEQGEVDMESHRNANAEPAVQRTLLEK
The experiment in a line: co-IP.

No constants are given. Whether binding was seen depends on the method and setting. In cells and extracts the contact can be indirect. Some binding calls cover weakened binding; strength is not graded here.

With “integrin-linked kinase-1 (ILK1) (from UniProt Q13418 1-452) (enzyme)”, the binding result was “binds”.
